From the supplement of paper PMC6411743
± gives the standard deviation of the averaged measurements. Only a part is listed here, and it is no random draw.

By UniProt entry, the sequences of proteins in these tests, tags left out. Where a name states a change or a piece, a line headed by the entry shows the natural chain unless it says otherwise.
UniProt Q9Y333: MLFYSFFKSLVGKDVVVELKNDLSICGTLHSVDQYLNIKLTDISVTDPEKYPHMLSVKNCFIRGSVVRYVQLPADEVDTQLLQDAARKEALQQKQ
UniProt Q9Y4C8: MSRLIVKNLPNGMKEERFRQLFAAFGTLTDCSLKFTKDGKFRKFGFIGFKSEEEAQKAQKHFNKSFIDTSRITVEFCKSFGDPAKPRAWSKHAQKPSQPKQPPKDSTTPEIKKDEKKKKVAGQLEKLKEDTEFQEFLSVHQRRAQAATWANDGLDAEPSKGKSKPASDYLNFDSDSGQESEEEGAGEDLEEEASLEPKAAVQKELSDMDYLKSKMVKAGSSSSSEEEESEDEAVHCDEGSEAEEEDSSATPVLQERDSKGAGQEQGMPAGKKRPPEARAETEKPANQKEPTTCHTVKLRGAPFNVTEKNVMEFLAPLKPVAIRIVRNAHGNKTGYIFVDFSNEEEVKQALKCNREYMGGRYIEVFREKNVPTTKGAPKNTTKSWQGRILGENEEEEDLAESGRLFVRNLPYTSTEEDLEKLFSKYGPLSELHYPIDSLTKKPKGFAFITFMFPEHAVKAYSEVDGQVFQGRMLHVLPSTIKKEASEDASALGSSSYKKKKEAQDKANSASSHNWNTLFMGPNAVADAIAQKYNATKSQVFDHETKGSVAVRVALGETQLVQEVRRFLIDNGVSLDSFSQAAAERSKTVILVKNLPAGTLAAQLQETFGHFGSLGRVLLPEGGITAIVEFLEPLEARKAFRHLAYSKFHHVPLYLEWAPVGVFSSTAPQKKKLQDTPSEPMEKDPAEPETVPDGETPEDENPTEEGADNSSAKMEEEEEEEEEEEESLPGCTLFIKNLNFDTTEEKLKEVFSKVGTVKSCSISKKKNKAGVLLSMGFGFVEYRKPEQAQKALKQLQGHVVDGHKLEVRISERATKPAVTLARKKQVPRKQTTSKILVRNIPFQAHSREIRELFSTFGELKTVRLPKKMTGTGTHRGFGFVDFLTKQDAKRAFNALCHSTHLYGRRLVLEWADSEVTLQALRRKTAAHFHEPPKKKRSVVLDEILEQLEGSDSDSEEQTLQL
UniProt Q9Y5Q8: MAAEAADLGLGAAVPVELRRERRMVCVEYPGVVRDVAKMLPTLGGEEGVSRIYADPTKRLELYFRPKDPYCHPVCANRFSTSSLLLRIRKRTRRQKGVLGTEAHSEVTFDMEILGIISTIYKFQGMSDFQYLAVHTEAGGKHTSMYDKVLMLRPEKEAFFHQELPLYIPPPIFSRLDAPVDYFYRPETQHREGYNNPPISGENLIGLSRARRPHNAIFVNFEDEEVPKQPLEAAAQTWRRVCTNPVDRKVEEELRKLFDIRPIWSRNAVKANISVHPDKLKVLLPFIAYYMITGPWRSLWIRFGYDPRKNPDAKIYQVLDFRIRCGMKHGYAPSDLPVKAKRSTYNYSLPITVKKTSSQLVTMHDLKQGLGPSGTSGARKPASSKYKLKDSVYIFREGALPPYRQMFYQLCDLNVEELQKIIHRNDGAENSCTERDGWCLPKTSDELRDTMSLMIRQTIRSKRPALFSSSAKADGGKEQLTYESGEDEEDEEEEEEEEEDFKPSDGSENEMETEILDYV
UniProt Q9Y2K3: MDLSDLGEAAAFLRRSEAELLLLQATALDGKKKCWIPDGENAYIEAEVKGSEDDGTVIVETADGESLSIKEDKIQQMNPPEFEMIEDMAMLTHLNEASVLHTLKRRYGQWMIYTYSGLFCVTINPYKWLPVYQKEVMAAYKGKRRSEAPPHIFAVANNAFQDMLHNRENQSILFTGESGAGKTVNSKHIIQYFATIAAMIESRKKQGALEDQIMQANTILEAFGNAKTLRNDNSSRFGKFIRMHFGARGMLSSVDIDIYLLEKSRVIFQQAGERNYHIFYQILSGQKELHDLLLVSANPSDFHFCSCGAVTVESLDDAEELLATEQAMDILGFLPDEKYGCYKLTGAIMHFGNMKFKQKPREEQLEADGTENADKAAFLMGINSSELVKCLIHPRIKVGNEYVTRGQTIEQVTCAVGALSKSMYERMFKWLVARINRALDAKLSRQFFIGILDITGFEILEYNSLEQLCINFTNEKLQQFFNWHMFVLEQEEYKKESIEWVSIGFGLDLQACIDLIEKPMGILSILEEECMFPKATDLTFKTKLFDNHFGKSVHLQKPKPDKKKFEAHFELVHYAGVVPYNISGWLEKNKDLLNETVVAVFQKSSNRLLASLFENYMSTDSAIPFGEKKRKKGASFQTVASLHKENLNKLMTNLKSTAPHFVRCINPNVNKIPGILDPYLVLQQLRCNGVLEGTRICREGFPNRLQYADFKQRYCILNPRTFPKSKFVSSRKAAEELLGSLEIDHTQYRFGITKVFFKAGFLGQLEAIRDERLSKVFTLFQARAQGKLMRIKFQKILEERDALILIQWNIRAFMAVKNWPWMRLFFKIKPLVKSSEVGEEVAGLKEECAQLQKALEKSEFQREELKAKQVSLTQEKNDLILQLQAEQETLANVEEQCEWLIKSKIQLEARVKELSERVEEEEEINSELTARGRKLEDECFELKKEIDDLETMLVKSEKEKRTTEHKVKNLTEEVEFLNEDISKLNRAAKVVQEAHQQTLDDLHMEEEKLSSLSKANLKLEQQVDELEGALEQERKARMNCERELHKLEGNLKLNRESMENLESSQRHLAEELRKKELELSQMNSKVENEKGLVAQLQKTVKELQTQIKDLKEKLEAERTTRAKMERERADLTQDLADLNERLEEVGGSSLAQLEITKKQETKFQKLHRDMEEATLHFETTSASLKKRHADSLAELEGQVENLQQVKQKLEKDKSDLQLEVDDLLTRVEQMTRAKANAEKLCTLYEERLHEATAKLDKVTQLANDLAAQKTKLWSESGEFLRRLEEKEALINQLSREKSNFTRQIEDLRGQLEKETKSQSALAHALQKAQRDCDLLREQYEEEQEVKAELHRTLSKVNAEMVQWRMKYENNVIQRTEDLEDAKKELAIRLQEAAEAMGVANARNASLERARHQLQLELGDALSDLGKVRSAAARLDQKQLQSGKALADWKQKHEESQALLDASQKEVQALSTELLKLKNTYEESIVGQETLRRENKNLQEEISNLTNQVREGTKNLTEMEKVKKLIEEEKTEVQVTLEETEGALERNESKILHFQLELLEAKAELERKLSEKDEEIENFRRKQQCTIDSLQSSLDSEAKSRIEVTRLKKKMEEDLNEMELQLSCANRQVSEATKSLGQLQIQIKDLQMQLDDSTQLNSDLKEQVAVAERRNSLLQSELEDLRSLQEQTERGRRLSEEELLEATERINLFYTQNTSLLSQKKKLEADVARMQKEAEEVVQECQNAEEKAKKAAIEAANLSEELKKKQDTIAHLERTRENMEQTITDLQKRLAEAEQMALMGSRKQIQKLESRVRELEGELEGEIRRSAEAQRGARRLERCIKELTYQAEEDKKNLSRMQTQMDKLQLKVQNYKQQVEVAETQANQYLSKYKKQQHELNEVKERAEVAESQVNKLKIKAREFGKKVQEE
UniProt Q9Y3I1: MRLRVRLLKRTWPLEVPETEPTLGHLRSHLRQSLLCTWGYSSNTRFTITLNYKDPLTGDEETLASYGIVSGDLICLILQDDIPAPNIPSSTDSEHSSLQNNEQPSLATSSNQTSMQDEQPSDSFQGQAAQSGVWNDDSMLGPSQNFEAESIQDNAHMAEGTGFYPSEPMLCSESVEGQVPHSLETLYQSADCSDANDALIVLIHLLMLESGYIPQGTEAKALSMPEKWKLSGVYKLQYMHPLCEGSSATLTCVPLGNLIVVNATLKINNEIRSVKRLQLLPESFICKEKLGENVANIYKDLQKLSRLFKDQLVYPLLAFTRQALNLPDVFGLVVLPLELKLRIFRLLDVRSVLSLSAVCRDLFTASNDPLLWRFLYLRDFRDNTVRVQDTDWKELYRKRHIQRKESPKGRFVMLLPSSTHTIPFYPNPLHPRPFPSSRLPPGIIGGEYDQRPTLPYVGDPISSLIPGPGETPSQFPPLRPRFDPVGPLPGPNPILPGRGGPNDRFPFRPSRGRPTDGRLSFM
UniProt Q9Y508: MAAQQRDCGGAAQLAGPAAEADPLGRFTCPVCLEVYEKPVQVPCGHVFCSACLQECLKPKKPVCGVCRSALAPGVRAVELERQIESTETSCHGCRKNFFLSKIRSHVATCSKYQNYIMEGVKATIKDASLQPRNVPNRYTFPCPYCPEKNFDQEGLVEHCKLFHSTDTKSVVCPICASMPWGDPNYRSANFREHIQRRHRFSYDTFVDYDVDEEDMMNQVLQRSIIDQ
UniProt Q9Y6J9: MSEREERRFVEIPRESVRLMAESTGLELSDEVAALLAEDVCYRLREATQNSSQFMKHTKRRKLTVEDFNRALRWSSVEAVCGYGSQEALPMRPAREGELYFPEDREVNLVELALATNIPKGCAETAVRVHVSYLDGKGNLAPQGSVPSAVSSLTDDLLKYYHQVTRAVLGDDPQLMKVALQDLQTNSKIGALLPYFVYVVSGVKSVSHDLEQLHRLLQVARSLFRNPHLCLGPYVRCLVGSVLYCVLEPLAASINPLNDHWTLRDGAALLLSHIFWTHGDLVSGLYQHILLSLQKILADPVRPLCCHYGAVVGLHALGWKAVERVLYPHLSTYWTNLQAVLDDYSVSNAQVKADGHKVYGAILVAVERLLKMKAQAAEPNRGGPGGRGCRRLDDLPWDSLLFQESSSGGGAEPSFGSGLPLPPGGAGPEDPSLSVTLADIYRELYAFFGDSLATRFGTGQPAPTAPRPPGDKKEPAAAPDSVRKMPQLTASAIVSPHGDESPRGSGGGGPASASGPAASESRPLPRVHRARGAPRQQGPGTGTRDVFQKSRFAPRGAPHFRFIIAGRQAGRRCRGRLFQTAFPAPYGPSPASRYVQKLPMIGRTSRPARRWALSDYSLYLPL
UniProt Q9Y6K5: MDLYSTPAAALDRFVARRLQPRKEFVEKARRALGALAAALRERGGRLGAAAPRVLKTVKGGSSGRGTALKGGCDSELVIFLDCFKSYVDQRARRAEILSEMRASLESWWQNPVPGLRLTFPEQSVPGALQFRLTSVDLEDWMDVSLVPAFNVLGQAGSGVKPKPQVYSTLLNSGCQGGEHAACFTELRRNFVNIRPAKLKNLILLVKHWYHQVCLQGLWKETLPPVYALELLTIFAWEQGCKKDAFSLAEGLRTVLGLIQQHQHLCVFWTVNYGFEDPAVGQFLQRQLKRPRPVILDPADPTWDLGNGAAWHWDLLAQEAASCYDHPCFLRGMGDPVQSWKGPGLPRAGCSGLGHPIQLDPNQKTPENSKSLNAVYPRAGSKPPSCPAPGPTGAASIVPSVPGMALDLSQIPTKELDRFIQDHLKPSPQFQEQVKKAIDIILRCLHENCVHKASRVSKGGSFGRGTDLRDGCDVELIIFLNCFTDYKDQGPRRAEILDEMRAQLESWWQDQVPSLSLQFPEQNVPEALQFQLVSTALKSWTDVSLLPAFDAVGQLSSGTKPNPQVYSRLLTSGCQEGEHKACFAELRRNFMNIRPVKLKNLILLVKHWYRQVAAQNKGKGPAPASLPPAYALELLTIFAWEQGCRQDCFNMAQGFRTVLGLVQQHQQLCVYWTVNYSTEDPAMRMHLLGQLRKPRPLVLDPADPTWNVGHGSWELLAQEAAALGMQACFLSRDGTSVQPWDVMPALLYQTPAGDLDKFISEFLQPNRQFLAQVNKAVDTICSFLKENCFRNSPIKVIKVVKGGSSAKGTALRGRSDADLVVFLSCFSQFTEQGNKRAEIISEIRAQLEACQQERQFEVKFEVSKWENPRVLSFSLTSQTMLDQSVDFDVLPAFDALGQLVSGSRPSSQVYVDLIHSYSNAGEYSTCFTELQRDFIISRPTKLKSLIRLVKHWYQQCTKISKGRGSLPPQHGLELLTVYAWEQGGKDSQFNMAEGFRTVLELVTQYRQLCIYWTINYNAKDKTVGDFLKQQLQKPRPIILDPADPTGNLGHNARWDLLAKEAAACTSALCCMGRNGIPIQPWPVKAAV
UniProt Q9Y4Z0: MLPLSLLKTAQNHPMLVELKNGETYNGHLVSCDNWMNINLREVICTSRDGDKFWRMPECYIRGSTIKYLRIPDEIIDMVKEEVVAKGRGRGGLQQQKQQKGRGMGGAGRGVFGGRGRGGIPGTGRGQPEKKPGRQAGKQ
UniProt Q9Y2I8: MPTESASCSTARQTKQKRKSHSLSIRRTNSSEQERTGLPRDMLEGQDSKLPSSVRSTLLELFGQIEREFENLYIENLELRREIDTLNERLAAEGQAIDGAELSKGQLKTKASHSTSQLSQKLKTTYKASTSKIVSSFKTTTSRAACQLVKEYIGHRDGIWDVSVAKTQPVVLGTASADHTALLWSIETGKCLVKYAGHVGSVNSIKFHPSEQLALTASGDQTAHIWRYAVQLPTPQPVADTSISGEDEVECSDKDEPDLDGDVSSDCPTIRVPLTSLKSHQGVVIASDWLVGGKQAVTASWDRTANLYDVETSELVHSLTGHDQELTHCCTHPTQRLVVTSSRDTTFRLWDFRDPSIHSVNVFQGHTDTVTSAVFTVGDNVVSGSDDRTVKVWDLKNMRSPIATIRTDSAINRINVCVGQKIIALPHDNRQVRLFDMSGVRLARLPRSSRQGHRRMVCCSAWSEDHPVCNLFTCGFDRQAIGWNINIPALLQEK

Compound: Nc1ncnc2c1ncn2[C@@H]1O[C@H](COP(=O)(O)OP(=O)(O)OP(=O)(O)O)[C@@H](O)[C@H]1O [adenosine triphosphate]
Assay: NP40-soluble protein abundance relative to vehicle (solubility fold change) (ratio); higher = more soluble protein in presence of ATP
Summary of the method: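 Data come from three independent experiments in which Dounce-homogenised Jurkat crude lysate was treated at eight concentrations from 0.1 to 10 mM. Treatment ran 10 min at room temperature and then 3 min at 37 °C, after which 0.8% NP40 and benzonase were added for 60 min at 4 °C before ultracentrifugation. The supernatant underwent TMT labelling and LC-MS/MS, and vsn-normalised intensities were expressed as fold change against the detergent-processed vehicle in each replicate.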

Target	NP40-soluble protein abundance (concentration: 1mM)	NP40-soluble protein abundance (concentration: 2mM)	NP40-soluble protein abundance (concentration: 4mM)	NP40-soluble protein abundance (concentration: 6mM)	NP40-soluble protein abundance (concentration: 8mM)	NP40-soluble protein abundance (concentration: 10mM)
LEMD3 (UniProt Q9Y2U8)	1.02 ± 0.018	1.25 ± 0.073	1.08 ± 0.032	1.09 ± 0.023	1.01 ± 0.011	1.09 ± 0.033
UniProt Q9Y3D8 and related entries	1.01 ± 0.081	1 ± 0.013	0.975 ± 0.12	1.06 ± 0.12	0.947 ± 0.045	0.969 ± 0.081
UniProt Q9Y333	0.957 ± 0.031	0.985 ± 0.043	0.9 ± 0.04	0.987 ± 0.024	0.865 ± 0.035	0.928 ± 0.04
UniProt Q9Y5W8 and related entries	1.06 ± 0.22	0.9974 ± 0.0093	1.02 ± 0.041	0.923 ± 0.0043	1.01 ± 0.024	0.956 ± 0.075
ARFGEF2 (UniProt Q9Y6D5)	1.03 ± 0.019	0.991 ± 0.014	0.973 ± 0.015	1.01 ± 0.02	0.993 ± 0.012	1.03 ± 0.042
RBM19 (UniProt Q9Y4C8)	0.993 ± 0.057	1.02 ± 0.023	1.1 ± 0.038	1.18 ± 0.021	1.16 ± 0.045	1.25 ± 0.11
NISCH (UniProt Q9Y2I1)	0.983 ± 0.037	0.974 ± 0.029	0.952 ± 0.029	0.954 ± 0.051	0.925 ± 0.019	0.942 ± 0.039
RCL1 (UniProt Q9Y2P8)	1.01 ± 0.15	1.03 ± 0.085	1 ± 0.1	0.994 ± 0.093	1.04 ± 0.098	1.1 ± 0.077
UniProt Q9Y4E6 and related entries	1.04 ± 0.017	1.02 ± 0.018	1.01 ± 0.023	1.01 ± 0.036	1.05 ± 0.021	1.01 ± 0.013
UniProt Q9Y450 and related entries	0.995 ± 0.035	1.01 ± 0.054	1 ± 0.045	0.998 ± 0.053	1 ± 0.038	1.02 ± 0.038
UniProt Q9Y608 and related entries	1.01 ± 0.044	1.02 ± 0.015	1 ± 0.013	1.05 ± 0.072	1.056 ± 0.0069	1.01 ± 0.069
UniProt Q9Y5Q8 and related entries	1.02 ± 0.049	1.04 ± 0.04	1.042 ± 0.0074	0.964 ± 0.025	1.03 ± 0.03	1.03 ± 0.04
MYH15 (UniProt Q9Y2K3)	1.11 ± 0.19	1.03 ± 0.13	1.08 ± 0.24	1.08 ± 0.31	1.18 ± 0.43	1.1 ± 0.25
UniProt Q9Y2A7 and related entries	1.01 ± 0.17	0.971 ± 0.12	0.971 ± 0.17	0.931 ± 0.12	0.99 ± 0.12	0.923 ± 0.097
UniProt Q9Y3R5 and related entries	1.02 ± 0.054	1.02 ± 0.057	1.02 ± 0.052	0.968 ± 0.062	1.04 ± 0.064	0.986 ± 0.046
UniProt Q9Y2H1	1.09 ± 0.047	1.07 ± 0.054	1.02 ± 0.033	1.05 ± 0.098	1.08 ± 0.043	1.02 ± 0.018
ARIH1 (UniProt Q9Y4X5)	1.02 ± 0.087	1.01 ± 0.086	0.988 ± 0.069	0.952 ± 0.11	1 ± 0.057	0.995 ± 0.058
MRPS23 (UniProt Q9Y3D9)	1.01 ± 0.14	0.903 ± 0.13	0.908 ± 0.14	0.877 ± 0.25	0.876 ± 0.16	0.806 ± 0.14
FBXO7 (UniProt Q9Y3I1)	0.866 ± 0.09	0.893 ± 0.055	0.861 ± 0.087	0.868 ± 0.043	0.893 ± 0.056	0.902 ± 0.033
RNF114 (UniProt Q9Y508)	1.06 ± 0.043	0.998 ± 0.057	0.966 ± 0.046	0.998 ± 0.065	0.989 ± 0.054	0.95 ± 0.036
UniProt Q9Y5L4 and related entries	0.896 ± 0.12	0.952 ± 0.082	0.986 ± 0.13	1.03 ± 0.12	0.878 ± 0.035	0.879 ± 0.13
UniProt Q9Y4B6 and related entries	1.009 ± 0.00039	0.988 ± 0.024	0.985 ± 0.049	0.992 ± 0.074	1.03 ± 0.065	1.01 ± 0.026
UniProt Q9Y2Q9 and related entries	0.995 ± 0.17	0.914 ± 0.14	0.921 ± 0.13	0.931 ± 0.27	0.905 ± 0.19	0.823 ± 0.14
TAF6L (UniProt Q9Y6J9)	1.08 ± 0.11	1.1 ± 0.05	1.08 ± 0.015	1.02 ± 0.063	1.08 ± 0.011	1.11 ± 0.075
UniProt Q9Y6Q9 and related entries	0.945 ± 0.054	0.98 ± 0.037	0.93 ± 0.016	0.986 ± 0.04	0.94 ± 0.036	0.935 ± 0.0079
OAS3 (UniProt Q9Y6K5)	1.02 ± 0.082	1.01 ± 0.053	1.02 ± 0.06	0.997 ± 0.11	1.03 ± 0.043	1.03 ± 0.055
LSM4 (UniProt Q9Y4Z0)	0.954 ± 0.023	0.974 ± 0.035	0.9643 ± 0.0079	0.942 ± 0.025	0.959 ± 0.058	0.936 ± 0.058
UniProt Q9Y2I8 and related entries	1.01 ± 0.029	0.985 ± 0.012	0.983 ± 0.024	0.931 ± 0.026	0.994 ± 0.034	0.991 ± 0.016
X5CMH5 and related entries (UniProt Q03519)	1.07 ± 0.071	1.1 ± 0.057	1.09 ± 0.084	0.986 ± 0.11	1.06 ± 0.034	1.06 ± 0.023
UniProt Q9Y4D1 and related entries	0.964 ± 0.078	0.973 ± 0.07	0.967 ± 0.06	0.962 ± 0.048	1 ± 0.016	1.005 ± 0.0064

Some values from the list.
Entry for UniProt Q9Y4D1 and related entries under NP40-soluble protein abundance (concentration: 2mM): 0.973 ± 0.07
Entry for UniProt Q9Y608 and related entries under NP40-soluble protein abundance (concentration: 6mM): 1.05 ± 0.072
